In patent publication US20210325404A1 (ADURO BIOTECH HOLDINGS EUROPE B V, published 2021):
No constants are given. Whether binding was seen depends on the method and setting. Some entries that bind do so weakly or less than the wild type.

Key:
[1] = biological target: T1, human APRIL in serum of CLL patients (human, UniProt O75888 105-250); assay: ELISA: serum APRIL captured by BCMA-Fc, antibody at 1 µg/ml, goat anti-mouse IgG detection
T1 construct: Endogenous soluble APRIL in patient sera (CLL1, CLL3, CLL6, CLL11-20); also called hAPRIL; A Proliferation-Inducing Ligand
T1 sequence (looked up): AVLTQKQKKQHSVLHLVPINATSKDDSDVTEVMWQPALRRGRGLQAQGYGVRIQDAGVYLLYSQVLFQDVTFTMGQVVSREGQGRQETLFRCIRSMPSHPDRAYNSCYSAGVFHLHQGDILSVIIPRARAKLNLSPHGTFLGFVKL
Description: To quantify the APRIL serum levels in serum derived from CLL patients using the newly identified APRIL monoclonal antibodies, hAPRIL.130, hAPRIL.132, hAPRIL.133, hAPRIL.135 and hAPRIL.138 the following ELISA assay was performed. ELISA plates were coated with 100 μl of 0.5 μg/ml BCMA-Fc (EBC0512081; R&D), in coating buffer (0.2 M Sodium Phosphate, pH=6.5) and incubated overnight at 4° C. Next, plates were washed three times with PBS/0.2% Tween and blocked with 150 μl PBS/1% BSA for one hour at 37° C. After washing 3 times with PBS/0.2% Tween 100 μl of samples or standard curves was added. The CLL serum samples were five times diluted in PBS/10% FCS, while standard curve was diluted in PBS+FCS 10%+HS 20%. Samples and standard curve concentrations were incubated for 2 hr at room temperature. Next, plates were washed three times with PBS/0.2% Tween. Next, 100 μl of the anti-APRIL monoclonal antibody was added to the plates at a concentration of 1 μg/ml diluted in PBS/1% BSA and incubated for one hour at 37° C. Subsequently, plates were washed three times with PBS/0.2% Tween and 100 μl of Goat anti-Mouse IgG (H&L) (Southern Biotech, cat number 1031-05), diluted 1:1,000 in PBS/1% BSA was added and incubated for one hour at 37° C. […] Bound APRIL was quantified by measurement of optical density at 450 nm.

[2] = biological target: secreted form of FLAG-hAPRIL (pCR3-hAPRIL) (human) (UniProt O75888); assay: ELISA: hybridoma supernatant on FLAG-hAPRIL captured by coated BCMA-Fc
[3] = biological target: T1, human APRIL in serum of CLL patients; assay: ELISA: serum APRIL of CLL1, CLL3 and CLL6 captured by BCMA-Fc (500 or 100 ng/well)
Description: To quantify the APRIL serum levels in serum derived from CLL patients using the newly identified APRIL monoclonal antibodies, hAPRIL.130, hAPRIL.132, hAPRIL.133, hAPRIL.135 and hAPRIL.138 the following ELISA assay was performed. […] Next, plates were washed three times with PBS/0.2% Tween and blocked with 150 μl PBS/1% BSA for one hour at 37° C. After washing 3 times with PBS/0.2% Tween 100 μl of samples or standard curves was added. The CLL serum samples were five times diluted in PBS/10% FCS, while standard curve was diluted in PBS+FCS 10%+HS 20%. Samples and standard curve concentrations were incubated for 2 hr at room temperature. Next, plates were washed three times with PBS/0.2% Tween. Next, 100 μl of the anti-APRIL monoclonal antibody was added to the plates at a concentration of 1 μg/ml diluted in PBS/1% BSA and incubated for one hour at 37° C. Subsequently, plates were washed three times with PBS/0.2% Tween and 100 μl of Goat anti-Mouse IgG (H&L) (Southern Biotech, cat number 1031-05), diluted 1:1,000 in PBS/1% BSA was added and incubated for one hour at 37° C. Plates were washed three times with PBS/0.2% Tween and bound immune complexes visualized by addition of 100 μl of TMB substrate (TMB). The reaction was stopped by adding an equal amount of 1 M hydrochloric acid to the reaction volume. Bound APRIL was quantified by measurement of optical density at 450 nm.

[4] = biological target: recombinant APRIL (APRIL wt expressed in 293T cells) (UniProt O75888); assay: ELISA: recombinant APRIL (100-0.04 ng/ml, with or without human serum) captured by BCMA-Fc, hAPRIL.133 at 1 µg/ml
[5] = biological target: recombinant APRIL (APRIL wt expressed in 293T cells) (UniProt O75888); assay: ELISA: recombinant APRIL standard curves captured by BCMA-Fc, detected by hAPRIL.133

B1: hAPRIL.130 (antibody, IgG1, V domains shown)
VH: QVQLKESGPGLVAPSQSLSITCTVSGFSLTGYGVNWVRQPPGKGLEWLGVIWGDGSTEYNSALKSRLSISKDKSKSQVFLKMNSLQTDDTARYYCARDDDVMDYWGQGTSVTVSS
VL: SIVMTQTPKFLLVSAGDRVTITCKAGQSVTNDVAWYQQKPGQSPKLLIYYASNRFTGVPDRFTGSGYGTDFTFAISTVQAEDLAVYFCQQDYSSPWTFGGGTKLEIK
binding [1]: binds | binding [2]: binds | binding [3]: binds

B2: hAPRIL.133 (antibody, IgG1, V domains shown)
VH: QVQLKESGPGLVAPSQSLSITCTVSGFSLTGYGVNWVRQPPGKGLEWLGVIWGDGSTEYNSALKSRLSISKDKSKSQVFLKMNSLQTDDTARYYCARDDDVMDYWGQGTSVTVSS
VL: SIVMTQTPKFLLVSAGDSITITCKADQSVSSDVAWYQQKAGQSPKLLIYYASNRYTGVPDRFTGSGYGTDFTFAISSVQAEDLAVYFCQQDYSSPWTFGGGTKLEIK
notes: constant regions are not; also called hAPRIL.133 mAb; anti-hAPRIL.133 monoclonal antibody
binding [4]: binds | binding [5]: binds | binding [2]: binds

B3: hAPRIL.132 (antibody, IgG1, V domains shown)
VH: QEQLKESGPGLVAPSQSLSITCTVSGFSLTSYGVHWVRQPPGKGLEWLGVIWAGGSTNYNSALMSRLSISRDNSKSQVFLKMNSLQTDDTAMYYCAREGLDTSGFYYAMDYWGQGTSVTVSS
VL: DIQMTQTTSSLSASLGDRVTISCRAGQAISNYLNWYQQKPGGTVKLLIYYTSKLHSGVPSRFSGSGSGTDYSLTISNLEQEDIATYFCQQGYTLPYTFGGGTKLEIK
notes: constant regions are not; also called anti-hAPRIL antibody hAPRIL.132
binding [2]: binds

B4: hAPRIL.135 (antibody, IgG1, V domains shown)
VH: QVQLKESGPGLVAPSQSLSITCTVSGFSLSRYSVHWVRQPPGKGLEWLGMIWGGGSTDYNSALKSRLSISKDNSKRQVFLKMNSLQTDDTAIYYCARSNWEIYALDYWGQGTSVTVSS
VL: DIVLTQSPASLAVSLGQRATISCKASQSIDYDGDNYMNWYQQKPGQPPKLLIYVASSLESGIPARFSGSGSGTDFTLNIHPVEEEDAATYYCQQSNVEPYTFGGGTKLEIK
notes: constant regions are not; also called anti-hAPRIL antibody hAPRIL.135
binding [2]: binds

B5: hAPRIL.138 (antibody, IgG1, V domains shown)
VH: QVQLKESGPGLVAPSQSLSITCTVSGFSLSRYSIHWVRQPPRKGLEWLGMIWGGGSTDYNSALKSRLSINKDNSKRQVFLKMHSLQTDDTAIYYCARSNWEIYAMDYWGQGTSVTVSS
VL: DIVLTQSPPSLAVSLGQRATISCKASQSIDYDGDRYMNWYQQKPGQPPKLLIYVASNLESGIPARFSGSGSGTDFTLNIHPVEEEDAATYYCQQSHEEPHTFGGGTKLEIK
notes: constant regions are not; also called anti-hAPRIL antibody hAPRIL.138
binding [2]: binds
